From patent US20040192606A1, “Method of promoting angiogenesis” (priority 1995, published 2004)
For at least one compound, name, drawing or mass did not settle the structure.

Test system: THP-1 cells
Experiment: VEGF protein secretion by THP-1 cells (ELISA of conditioned media)
Type: cell-based, human
Conditions: adenyl cyclase stimulator

## C=C[C@@]1(C)CC(=O)[C@]2(O)[C@@]3(C)[C@@H](O)CCC(C)(C)[C@@H]3[C@H](O)[C@H](OC(C)=O)[C@@]2(C)O1 [Forskolin]
  VEGF production (dose response in words): dose-dependent bi-phasic manner
